# Reference: PubChem BioAssay AID1439 (NMMLSC, 2008)
# Chains of the proteins cited; added tags and fusions are not shown.
# UniProt P09471, whole entry, looked up: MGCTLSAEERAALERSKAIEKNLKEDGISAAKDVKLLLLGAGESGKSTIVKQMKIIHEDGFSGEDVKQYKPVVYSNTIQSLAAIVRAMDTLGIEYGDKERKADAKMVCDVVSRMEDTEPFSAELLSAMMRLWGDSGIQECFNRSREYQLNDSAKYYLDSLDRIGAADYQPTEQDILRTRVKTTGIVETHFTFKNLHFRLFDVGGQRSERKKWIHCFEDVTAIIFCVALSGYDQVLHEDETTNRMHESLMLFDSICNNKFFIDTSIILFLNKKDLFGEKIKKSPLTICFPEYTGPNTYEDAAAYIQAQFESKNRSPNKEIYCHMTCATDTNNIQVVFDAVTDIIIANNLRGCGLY
# Screen size: about 220,000 compounds; about 770 (0.35%) were called active. This list was built around the results that the source calls inconclusive (neither active nor inactive); the mix of calls is not that of the screen. Rule as the data show it: active = binding response below about 49% or above about 150%; inconclusive = no clear call, values can overlap the other calls; inactive = in between.
# Molecular target: Guanine nucleotide-binding protein G(o) subunit alpha (Homo sapiens) (UniProt P09471)
# Test: RGS7-Galphao binding modulators, primary screen, biochemical, multiplexed bead flow cytometry (AID 1439);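 also: fluorescent Galphao held in activated GDP-AlF4 state binding bead-coupled RGS7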
# Settings: at 10 µM, actives lie on both sides
row,Structure (SMILES),binding response (% of control)
1,Cc1ccc(-c2nc3cccnc3s2)cc1NS(C)(=O)=O,active: -31%
2,CCCCC(=O)N=c1sc2cc([N+](=O)[O-])ccc2n1C,inconclusive: 104%
3,O=C(Nc1ccc(Cl)cc1)OCc1ccccn1,inactive: 94.3%
4,O=C(CSc1nc2ccccc2s1)NCc1ccc2c(c1)OCO2,inactive: 106%
5,O=C(NC(=O)N1CCN(c2ccc([N+](=O)[O-])cn2)CC1)c1c(Cl)cccc1Cl,inconclusive: 150%
6,CN(C)CCN=c1cc(-c2ccccc2)oc2ccc(Cl)cc12,active: 155% [activator]
7,Cc1ccccc1-n1c(-c2ccncc2)n[nH]c1=S,inactive: 88.2%
8,Nc1c(Cl)ncnc1N/N=C/c1ccncc1,inconclusive: 157%
9,CC1CN/C(=C\C(=O)c2ccccc2)C(=O)N1 (stereo not given),active: 43.7%
10,COc1ccc(NC(=S)N/N=C/c2ccc(F)c(F)c2)cc1,inconclusive: 140%
11,CCNC(=O)C12CCC(C)(c3nc4cc(C)c(C)cc4nc31)C2(C)C (stereo not given),inconclusive: 114%
12,COc1ccccc1NC(=O)c1ccccc1S(=O)(=O)c1ccccc1[N+](=O)[O-],inconclusive: 137%
13,Cc1nn(C)c(Cl)c1/C=C/C(=O)O,inconclusive: 114%
14,COc1ccc(OCC(=O)Nc2c3c(nn2C(C)(C)C)CSC3)cc1,inactive: 102%
15,Cc1cccn2c(CN3CCCN(C=O)CC3)c(C(=O)N(C)CCc3ccccc3)nc12,inconclusive: 97.4%
16,COc1cccc(-n2nc(-c3ccnn3-c3cccc(Cl)c3)c(=O)n(C)c2=O)c1,inconclusive: 110%
17,NNC(=O)c1cc(-c2cccs2)nc2ccccc12,inconclusive: 41%
18,Cc1ccc(O)c(N=Nc2ccc(S(=O)(=O)N3CCCC3)cc2)c1,inconclusive: 95.4%
19,COCCn1c(NC(=S)NC(=O)C2CC2)cc(=O)[nH]c1=O,inconclusive: 108%
20,COc1ccc(/C(C)=N/N2CCOCC2)c(O)c1,inconclusive: 28.4%
21,CC(=O)c1cccc(S(=O)(=O)N2CCN(c3ccccc3F)CC2)c1,inconclusive: 94.7%
22,CC(C)CN1C(=O)c2ccc(NC(=O)Cc3ccccc3)cc2C1=O,inconclusive: 87.5%
23,CN(C)c1ccnc(SCc2ccccc2Cl)c1C#N,inactive: 104%
24,Cc1ccc(OCCSc2nc3ncnc(N)c3[nH]2)cc1,inconclusive: 90.5%

row,Structure (SMILES),binding response (% of control)
1,CSc1ncccc1C(=O)OCC(=O)C(C)(C)C,inactive: 97.3%
2,CCOC(=O)C1=NN(c2ccccc2)C2C(=O)N(c3ccccc3OC)C(=O)C12 (stereo not given),inconclusive: 127%
3,COc1cccc(NC(=O)C(Sc2nnnn2C)c2ccccc2)c1 (stereo not given),inconclusive: 95.4%
4,CNC(=O)/C(C#N)=C/c1cn(CC(=O)NCc2ccco2)c2ccccc12,inconclusive: 104%
5,O=C(Nc1ccc(F)cc1)OCCOc1ccc(Br)cc1,inconclusive: 108%
6,COC(=O)c1ccc(COc2ccc(/C=N/Nc3cccc(C(=O)O)c3)cc2)cc1,inconclusive: 88.9%
7,CN(C)C(=O)c1c(C(F)(F)F)nn(C)c1Cl,inconclusive: 91.9%
8,Brc1ccc2nc(N3CCN(c4ccccc4)CC3)sc2c1,inconclusive: 87.2%
9,Cc1ccc(CSc2ccc(-c3cccs3)nn2)cc1,inactive: 96.5%
10,CN1C2CCC1CC(NC(=O)CSCc1ccc(Cl)cc1Cl)C2 (stereo not given),inconclusive: 98.3%
11,CC1=CC=CC2=NC(=O)CC(C)(C(=O)O)N12 (stereo not given),inactive: 104%
12,CC(C)(C)OC(=O)N[C@@H](Cc1ccccc1)c1nnc(SCC(N)=O)o1,inconclusive: 115%
13,CCN1CCN(c2nc(S(=O)(=O)c3ccc(C)cc3)c(Cl)s2)CC1,inactive: 98.4%
14,COc1ccc(/C(C)=N/NC(=O)Cn2nc([N+](=O)[O-])cc2C)cc1,inconclusive: 110%
15,Cc1cc(NS(=O)(=O)c2ccc(NC(=S)NC(=O)c3ccncc3)cc2)no1,inconclusive: 77.4%
16,O=C(CCC(=O)N1CCN(c2ccc(O)cc2)CC1)c1cccs1,inconclusive: 62.1%
17,CCc1ccc(C(=O)NNc2ccc(Cl)cc2)cc1,inconclusive: 89.8%
18,Cc1ccc(NC(=O)C2CC2C)c(Cl)c1 (stereo not given),inconclusive: 96.8%
19,COc1cccc(N2CCN(C(=O)C3CCN(S(=O)(=O)c4cccs4)CC3)CC2)c1,inactive: 94.8%
20,CCCn1c(N)c(C(=O)COc2ccc(Br)cc2F)c(=O)n(C)c1=O,inconclusive: 97.9%
21,O=C(CCc1ccccc1)NNc1ccc(F)cc1,inconclusive: 108%
22,COc1ccc(-c2nnc3ccc(SCC(=O)Nc4cc(C)on4)nn23)cc1OC,inconclusive: 79.5%
23,CC(C)CC(NC(=O)C(NC(=O)C(Cc1ccc(OCc2ccccc2)cc1)NC(=O)OC(C)(C)C)C(C)C)C(N)=O (stereo not given),inactive: 108%
24,Cc1ccccc1NC(=S)N(Cc1ccccc1)Cc1cccnc1,inconclusive: 105%

# Reformatted with tabs: entries from further up.
row	Structure (SMILES)	binding response (% of control)
7	Cc1ccccc1-n1c(-c2ccncc2)n[nH]c1=S	inactive: 88.2%
11	CCNC(=O)C12CCC(C)(c3nc4cc(C)c(C)cc4nc31)C2(C)C (stereo not given)	inconclusive: 114%

# Going on with the list:

row,Structure (SMILES),binding response (% of control)
1,Cc1c(-c2ccc(Cl)cc2)[n+](=O)c(-c2ccccc2)cn1[O-],inconclusive: 113%
2,COC(=O)c1ccc(C(=O)OC)c(NC(=S)N2CCOCC2)c1,inconclusive: 102%
3,COc1ccc(OC)c(/C=C/C(=O)OCC(=O)c2c(N)n(C)c(=O)n(C)c2=O)c1,inactive: 99%
4,COC(=O)c1c(C)oc(C)c1S(=O)(=O)NCC1CC1,inconclusive: 68.5%
5,COC(=O)c1cccc(NC(=S)N2CCN(c3ccccc3F)CC2)c1,inactive: 101%
6,Cn1nc(C(F)(F)F)cc1C(=O)Nc1ccc(Cl)cc1,inconclusive: 171%
7,Cc1cc[n+](-c2[nH]c(=O)sc2/C=N/N=C(\[O-])c2ccccc2)cc1C,inconclusive: 86.5%
8,COc1ccc(Nc2nc(N)c([N+](=O)[O-])c(NCCO)n2)cc1,inconclusive: 101%
9,CC(C)C(=O)Nc1ccc(C(=O)NNC(=O)c2ccco2)cc1,inactive: 107%
10,CNC(=S)SCCOc1ccccc1,inconclusive: 196%
11,COC(=O)/C=C1\NCCNC1=O,inconclusive: -310%
12,CCOc1ncccc1C(=O)OCc1c(F)cccc1Cl,inconclusive: 100%
13,CCSc1nnc(COc2ccccc2)n1CC,inconclusive: 130%
14,C/C(N)=C(/C#N)C(=O)COC(=O)CNS(=O)(=O)c1ccc(F)c(F)c1F,inconclusive: 95%
15,O=C(Nc1ccc(O)c2c(=O)cc(-c3cccc(Cl)c3)oc12)c1cccc(Cl)c1,inconclusive: 100%
16,C=CCNS(=O)(=O)c1ccc2nsnc2c1,inactive: 135%
17,Cn1nnc(NC(=O)CSc2ccc(Cl)cc2)n1,inactive: 105%
18,CC(C)(C)OC(=O)N1CCC(c2cc(=O)n3[nH]c(-c4ccc(Cl)cc4)cc3n2)CC1,active: 44.4%
19,Cc1cc([N+](=O)[O-])nn1CC(=O)NCCc1c[nH]c2ccccc12,inactive: 96.7%
20,O=C(O)/C=C/C(=O)Nc1ccccc1SC(F)(F)C(F)(F)C(F)(F)F,inconclusive: 92.5%
21,CC(C)(C)C(=O)NC(=S)Nc1ccc(Cl)c(C(=O)O)c1,inconclusive: 74.6%
22,Cc1cc(C)n(-c2cc(C(C)(C)C)nc3c(-c4ccccc4)cnn23)n1,inconclusive: 103%
23,Cc1cc(C)n(-c2nc3ccccc3c(=O)n2OCC(=O)Nc2c(C)cccc2C)n1,inactive: 134%
24,O=C(NC(=S)N(CC1CCC1)CC1CCCO1)c1cccc([N+](=O)[O-])c1 (stereo not given),inactive: 99.8%

# Individual results from the results shown.
# Entry of CC(=O)c1cccc(S(=O)(=O)N2CCN(c3ccccc3F)CC2)c1 under binding response (% of control): inconclusive: 94.7%
# Entry of Cc1c(-c2ccc(Cl)cc2)[n+](=O)c(-c2ccccc2)cn1[O-] under binding response (% of control): inconclusive: 113%

# (more compounds)

row,Structure (SMILES),binding response (% of control)
1,O=c1c2ccccc2nc(SCc2ccccc2)n1CC1CCCO1 (stereo not given),inconclusive: 95%
2,CCOC(=O)NC(N(O)c1cccc(Cl)c1)C(Cl)(Cl)Cl (stereo not given),inconclusive: 51.3%
3,CSC1=NC(C(Cl)(Cl)Cl)N=C(c2ccc(C)cc2)N1 (stereo not given),inconclusive: 97.5%
4,CC(C)(C)CC(C)(C)NCC(=O)Nc1c2c(nc3ccccc13)CCC2,inactive: 101%
5,O=C(Nc1nc2ccccc2c(=O)[nH]1)c1ccccc1SCc1ccccc1,inconclusive: 94.9%
6,O=C(COC(=O)CNC(=O)c1ccc(Br)o1)Nc1ccccc1OC(F)F,inactive: 103%
7,COc1ccccc1OCC#CCSc1ncccn1,inconclusive: 108%
8,Cc1cc(C)n(CC(=O)c2cccc([N+](=O)[O-])c2)n1,inconclusive: 120%
9,N#C/C(=C\Nc1ccc(Cl)cc1)S(=O)(=O)c1ccccn1,inconclusive: -115%
10,COc1ccc([N+](=O)[O-])cc1N(CC(O)CN(CC(C)C)CC(C)C)S(=O)(=O)c1ccc(C)cc1 (stereo not given),inconclusive: 88.1%
11,COc1ccc(OCC(O)CNCCNc2nccc(C(F)(F)F)n2)cc1 (stereo not given),inconclusive: 48.5%
12,Cc1cc2occ(CC(=O)O)c2cc1C,inactive: 97.9%
13,CC(=O)Nc1cccc(OCC(=O)Nc2sccc2C(N)=O)c1,inconclusive: 42.5%
14,NNc1nc2ccc(F)cc2s1,inactive: 88.6%
15,CCC(C)n1c(OC)nc2c1c(=O)n(C)c(=O)n2C (stereo not given),inactive: 103%
16,CN(CCN(C)C(C)(C)C)C(=O)C(c1ccccc1)c1ccccc1,inconclusive: 60.6%
17,CCSC(=S)c1c(C)[nH]n(-c2ccccc2)c1=O,inconclusive: 154%
18,Cc1cc(=O)oc(C)c1C(=O)NC1CCCCCCC1,inactive: 101%
19,COc1cc2c(cc1OC)C(C1C(=O)CC(C)(C)CC1=O)N(C(=O)CCl)CC2 (stereo not given),inactive: 92%
20,COc1ccc(/C=C/C(=O)c2ccccc2)cc1COc1ccccc1F,inactive: 126%
21,COc1ccc(/C=C2\CCc3c2nc2ccccc2c3C(=O)O)cc1OC,inconclusive: 122%
22,CCOC(=O)C1=C(Cc2ccc(C)cc2)C(=O)c2ccccc2C1=O,inactive: 78.7%
23,CCC(C)(C)NC(=O)Cn1c(-c2ccc(C)cc2)noc1=O,inconclusive: 106%
